In this assay the target is T1, Arl8a, yeast two-hybrid bait (UniProt Q96BM9).
T1 sequence: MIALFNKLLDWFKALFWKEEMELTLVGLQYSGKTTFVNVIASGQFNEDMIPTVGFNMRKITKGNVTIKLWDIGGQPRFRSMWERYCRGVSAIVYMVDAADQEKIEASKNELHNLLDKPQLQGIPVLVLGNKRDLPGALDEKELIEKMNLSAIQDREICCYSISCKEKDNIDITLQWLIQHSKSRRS
In words: two-hybrid; Arl8 baits in pDEST32 in strain PJ69-4a, SKIP preys in pDEST22 in strain PJ69-4alpha; mated, grown on selective medium at 30°C for 3 days.

Results are given in words; binding and its absence hold for the method and conditions named. Some results given as binding are weak or reduced against the parent protein; the word gives no strength.

B1: SKIP, yeast two-hybrid prey (protein, UniProt Q8IWE5 1-1019)
chain: MEPGEVKDRILENISLSVKKLQSYFAACEDEIPAIRNHDKVLQRLCEHLDHALLYGLQDLSSGYWVLVVHFTRREAIKQIEVLQHVATNLGRSRAWLYLALNENSLESYLRLFQENLGLLHKYYVKNALVCSHDHLTLFLTLVSGLEFIRFELDLDAPYLDLAPYMPDYYKPQYLLDFEDRLPSSVHGSDSLSLNSFNSVTSTNLEWDDSAIAPSSEDYDFGDVFPAVPSVPSTDWEDGDLTDTVSGPRSTASDLTSSKASTRSPTQRQNPFNEEPAETVSSSDTTPVHTTSQEKEEAQALDPPDACTELEVIRVTKKKKIGKKKKSRSDEEASPLHPACSQKKCAKQGDGDSRNGSPSLGRDSPDTMLASPQEEGEGPSSTTESSERSEPGLLIPEMKDTSMERLGQPLSKVIDQLNGQLDPSTWCSRAEPPDQSFRTGSPGDAPERPPLCDFSEGLSAPMDFYRFTVESPSTVTSGGGHHDPAGLGQPLHVPSSPEAAGQEEEGGGGEGQTPRPLEDTTREAQELEAQLSLVREGPVSEPEPGTQEVLCQLKRDQPSPCLSSAEDSGVDEGQGSPSEMVHSSEFRVDNNHLLLLMIHVFRENEEQLFKMIRMSTGHMEGNLQLLYVLLTDCYVYLLRKGATEKPYLVEEAVSYNELDYVSVGLDQQTVKLVCTNRRKQFLLDTADVALAEFFLASLKSAMIKGCREPPYPSILTDATMEKLALAKFVAQESKCEASAVTVRFYGLVHWEDPTDESLGPTPCHCSPPEGTITKEGMLHYKAGTSYLGKEHWKTCFVVLSNGILYQYPDRTDVIPLLSVNMGGEQCGGCRRANTTDRPHAFQVILSDRPCLELSAESEAEMAEWMQHLCQAVSKGVIPQGVAPSPCIPCCLVLTDDRLFTCHEDCQTSFFRSLGTAKLGDISAVSTEPGKEYCVLEFSQDSQQLLPPWVIYLSCTSELDRLLSALNSGWKTIYQVDLPHTAIQEASNKKKFEDALSLIHSAWQRSDSLCRGRASRDPWC
B1: the binding entry was “binds”.

These data come from publication PMC3240744.
